These are yes or no findings as the source states them, for the method shown. Binding seen in cells or lysates may run through a third protein. Some binding calls cover weakened binding; strength is not graded here.
Target: specificity protein-1 (SP-1) (UniProt P08047)
Assay: co-IP; lysates of transfected cells in HEPES buffer (20 mM HEPES pH 7.2, 50 mM NaCl, 0.5% Triton X-100, 1 mM NaF, 1 mM DTT) with protease inhibitors; mouse anti-Flag 4 h at 4 °C, protein A/G-agarose overnight at 4 °C; three washes; immunoblot

Chains of the proteins cited; added tags and fusions are not shown.
UniProt P08047: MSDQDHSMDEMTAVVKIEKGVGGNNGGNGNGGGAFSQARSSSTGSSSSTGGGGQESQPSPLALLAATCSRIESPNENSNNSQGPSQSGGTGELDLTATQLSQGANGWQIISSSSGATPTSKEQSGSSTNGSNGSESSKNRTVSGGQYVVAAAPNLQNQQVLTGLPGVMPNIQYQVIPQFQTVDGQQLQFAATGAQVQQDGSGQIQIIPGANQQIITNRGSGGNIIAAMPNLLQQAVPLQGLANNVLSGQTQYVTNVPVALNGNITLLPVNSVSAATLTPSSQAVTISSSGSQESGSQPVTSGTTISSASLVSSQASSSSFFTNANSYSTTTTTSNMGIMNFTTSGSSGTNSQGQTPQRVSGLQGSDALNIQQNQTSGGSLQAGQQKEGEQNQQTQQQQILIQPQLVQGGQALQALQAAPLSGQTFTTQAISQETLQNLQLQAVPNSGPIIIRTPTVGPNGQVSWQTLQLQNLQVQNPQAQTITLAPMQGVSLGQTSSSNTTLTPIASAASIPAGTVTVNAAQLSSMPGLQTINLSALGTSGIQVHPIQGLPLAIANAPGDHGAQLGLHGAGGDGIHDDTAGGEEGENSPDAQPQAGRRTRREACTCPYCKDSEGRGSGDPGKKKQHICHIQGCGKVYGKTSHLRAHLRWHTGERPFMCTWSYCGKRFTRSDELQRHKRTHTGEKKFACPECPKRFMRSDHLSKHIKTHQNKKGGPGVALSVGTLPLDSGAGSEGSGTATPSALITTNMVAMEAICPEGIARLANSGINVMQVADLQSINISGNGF
UniProt Q99814: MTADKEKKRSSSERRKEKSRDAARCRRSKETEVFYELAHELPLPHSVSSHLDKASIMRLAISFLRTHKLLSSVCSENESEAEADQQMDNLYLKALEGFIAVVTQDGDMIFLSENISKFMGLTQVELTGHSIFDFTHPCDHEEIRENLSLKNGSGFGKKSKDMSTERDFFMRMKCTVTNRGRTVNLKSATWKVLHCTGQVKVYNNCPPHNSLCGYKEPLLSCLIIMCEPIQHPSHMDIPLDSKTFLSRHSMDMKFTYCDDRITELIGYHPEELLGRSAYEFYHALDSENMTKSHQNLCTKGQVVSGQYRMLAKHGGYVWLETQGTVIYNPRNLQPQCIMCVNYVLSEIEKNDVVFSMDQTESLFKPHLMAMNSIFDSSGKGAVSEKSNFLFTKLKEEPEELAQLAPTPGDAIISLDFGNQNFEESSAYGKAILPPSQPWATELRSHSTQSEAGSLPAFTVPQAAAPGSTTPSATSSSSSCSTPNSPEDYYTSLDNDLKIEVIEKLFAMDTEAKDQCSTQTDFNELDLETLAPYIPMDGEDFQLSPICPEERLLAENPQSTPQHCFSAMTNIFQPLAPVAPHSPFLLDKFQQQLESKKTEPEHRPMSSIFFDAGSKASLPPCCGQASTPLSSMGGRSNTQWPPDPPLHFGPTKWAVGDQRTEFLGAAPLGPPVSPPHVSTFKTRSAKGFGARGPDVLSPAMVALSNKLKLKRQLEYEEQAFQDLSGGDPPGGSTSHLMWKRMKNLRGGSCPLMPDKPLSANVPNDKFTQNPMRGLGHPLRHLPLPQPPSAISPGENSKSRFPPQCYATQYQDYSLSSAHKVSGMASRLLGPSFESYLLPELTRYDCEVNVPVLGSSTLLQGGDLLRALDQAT

In the case of “endothelial pas domain protein-1 (EPAS-1) (from UniProt Q99814 1-870)”, the binding is reported as “binds”.

From paper PMC4200855
